Assay [1] concerns the target IQGAP1 (human (endogenous in HeLa)) (UniProt P46940). The experiment in a line: proximity ligation; Duolink In Situ Red Mouse/Rabbit on fixed HeLa cells (methanol, or 3.7% PFA for IQGAP1-CLIP170) in metaphase and anaphase; also Centrinone B-treated cells.
Assay [2] deals with T1, His6-DIAPH1-NT (human, UniProt O60610 1-575).
T1 construct: human DIAPH1, N-terminal fragment, residues 1-575 of the 1272-residue protein; plasmid pET30a-DIAPH1-NT(1-575aa); Plasmid was a gift from J. Copeland; also called N-terminal fragment of DIAPH1; DIAPH1 N-terminal regulatory domains; source: E. coli BL21, purified (nickel-Sepharose)
In words: pull-down; 0.05 nmol His6-DIAPH1-NT immobilised on nickel-Sepharose beads, with or without equimolar GST-IQGAP1 or GST-RhoA (2 h), then equimolar MBP-DIAPH1-CT (2 h); 25 mM HEPES pH 7.5, 120 mM NaCl, 1 mM EGTA, 0.3% Triton X-100, 1 mM beta-mercaptoethanol; 4 °C; anti-MBP blot; both purified.

By UniProt entry, the sequences of proteins in these tests, tags left out. Where a name states a change or a piece, a line headed by the entry shows the natural chain unless it says otherwise.
UniProt P46940: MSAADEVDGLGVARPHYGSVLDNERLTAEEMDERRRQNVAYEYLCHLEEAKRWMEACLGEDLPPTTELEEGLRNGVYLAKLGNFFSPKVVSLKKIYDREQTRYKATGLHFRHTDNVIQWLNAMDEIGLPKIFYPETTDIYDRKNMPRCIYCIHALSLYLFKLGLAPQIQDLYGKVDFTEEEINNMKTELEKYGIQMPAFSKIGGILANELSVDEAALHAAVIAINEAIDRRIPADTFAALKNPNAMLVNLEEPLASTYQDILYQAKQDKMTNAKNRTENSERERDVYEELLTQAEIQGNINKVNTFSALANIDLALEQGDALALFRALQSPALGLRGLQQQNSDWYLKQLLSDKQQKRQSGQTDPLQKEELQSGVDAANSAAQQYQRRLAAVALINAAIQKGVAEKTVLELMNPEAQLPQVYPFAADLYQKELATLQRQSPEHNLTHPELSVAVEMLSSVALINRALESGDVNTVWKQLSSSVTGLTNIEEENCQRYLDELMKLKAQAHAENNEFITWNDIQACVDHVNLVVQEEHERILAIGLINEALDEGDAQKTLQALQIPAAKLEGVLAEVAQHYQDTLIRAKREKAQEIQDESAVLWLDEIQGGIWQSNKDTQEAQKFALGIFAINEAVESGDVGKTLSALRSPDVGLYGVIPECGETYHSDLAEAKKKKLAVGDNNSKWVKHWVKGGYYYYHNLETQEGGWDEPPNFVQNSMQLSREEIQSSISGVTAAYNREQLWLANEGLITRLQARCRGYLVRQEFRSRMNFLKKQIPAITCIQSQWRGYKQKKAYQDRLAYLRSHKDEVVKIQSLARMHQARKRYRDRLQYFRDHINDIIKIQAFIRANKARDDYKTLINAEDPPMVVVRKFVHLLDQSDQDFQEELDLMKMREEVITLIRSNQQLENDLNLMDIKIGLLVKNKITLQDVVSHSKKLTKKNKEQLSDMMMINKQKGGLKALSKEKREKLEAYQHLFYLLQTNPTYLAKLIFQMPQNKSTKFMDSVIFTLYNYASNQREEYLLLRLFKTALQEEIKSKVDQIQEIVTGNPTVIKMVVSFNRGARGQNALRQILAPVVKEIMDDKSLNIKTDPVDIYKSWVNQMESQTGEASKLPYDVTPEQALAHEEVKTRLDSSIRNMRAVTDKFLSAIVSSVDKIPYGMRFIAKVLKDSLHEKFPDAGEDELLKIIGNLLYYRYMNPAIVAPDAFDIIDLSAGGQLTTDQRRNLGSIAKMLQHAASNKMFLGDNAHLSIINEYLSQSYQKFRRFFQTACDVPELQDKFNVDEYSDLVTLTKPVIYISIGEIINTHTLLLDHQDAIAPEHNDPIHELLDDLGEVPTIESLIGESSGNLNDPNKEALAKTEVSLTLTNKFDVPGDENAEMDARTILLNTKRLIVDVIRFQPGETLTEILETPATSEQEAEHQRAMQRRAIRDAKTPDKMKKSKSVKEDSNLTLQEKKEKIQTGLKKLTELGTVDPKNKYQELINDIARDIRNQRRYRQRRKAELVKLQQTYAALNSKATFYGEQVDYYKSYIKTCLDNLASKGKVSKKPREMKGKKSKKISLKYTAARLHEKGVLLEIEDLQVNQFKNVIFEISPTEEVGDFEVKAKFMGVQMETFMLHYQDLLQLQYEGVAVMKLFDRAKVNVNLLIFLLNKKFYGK
UniProt O60610: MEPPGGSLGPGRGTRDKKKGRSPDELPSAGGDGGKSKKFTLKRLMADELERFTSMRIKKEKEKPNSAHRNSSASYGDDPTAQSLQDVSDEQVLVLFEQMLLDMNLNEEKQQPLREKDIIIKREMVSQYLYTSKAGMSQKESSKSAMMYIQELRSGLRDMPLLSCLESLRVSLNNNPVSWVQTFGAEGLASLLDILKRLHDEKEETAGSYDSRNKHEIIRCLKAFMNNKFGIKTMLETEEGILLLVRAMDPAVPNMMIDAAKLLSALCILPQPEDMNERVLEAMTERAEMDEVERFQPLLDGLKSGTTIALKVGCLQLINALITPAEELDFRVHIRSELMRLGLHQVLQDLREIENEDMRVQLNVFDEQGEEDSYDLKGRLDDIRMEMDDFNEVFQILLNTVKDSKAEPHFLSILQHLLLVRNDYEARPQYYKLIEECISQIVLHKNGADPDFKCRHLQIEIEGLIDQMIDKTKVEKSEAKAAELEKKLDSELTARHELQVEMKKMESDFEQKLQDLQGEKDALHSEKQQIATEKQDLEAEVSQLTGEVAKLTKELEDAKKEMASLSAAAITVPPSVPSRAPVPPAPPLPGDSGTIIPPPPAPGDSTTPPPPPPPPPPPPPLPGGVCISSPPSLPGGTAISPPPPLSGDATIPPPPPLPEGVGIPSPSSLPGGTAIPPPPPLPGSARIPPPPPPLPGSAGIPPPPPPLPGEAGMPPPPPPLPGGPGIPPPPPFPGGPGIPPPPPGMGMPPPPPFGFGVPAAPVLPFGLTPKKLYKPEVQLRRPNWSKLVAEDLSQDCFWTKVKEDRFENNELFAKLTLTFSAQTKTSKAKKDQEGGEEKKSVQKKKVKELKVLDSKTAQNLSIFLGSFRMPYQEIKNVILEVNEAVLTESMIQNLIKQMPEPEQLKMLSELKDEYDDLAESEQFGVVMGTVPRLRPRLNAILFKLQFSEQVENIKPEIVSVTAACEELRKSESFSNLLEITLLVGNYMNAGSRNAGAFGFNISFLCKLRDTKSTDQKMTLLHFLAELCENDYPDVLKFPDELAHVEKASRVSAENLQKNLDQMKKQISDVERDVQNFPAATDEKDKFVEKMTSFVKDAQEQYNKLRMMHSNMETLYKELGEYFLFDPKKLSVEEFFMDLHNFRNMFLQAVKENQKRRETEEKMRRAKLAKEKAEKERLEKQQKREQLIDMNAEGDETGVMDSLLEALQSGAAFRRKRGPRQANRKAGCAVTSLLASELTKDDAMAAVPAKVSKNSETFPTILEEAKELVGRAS
UniProt P61586: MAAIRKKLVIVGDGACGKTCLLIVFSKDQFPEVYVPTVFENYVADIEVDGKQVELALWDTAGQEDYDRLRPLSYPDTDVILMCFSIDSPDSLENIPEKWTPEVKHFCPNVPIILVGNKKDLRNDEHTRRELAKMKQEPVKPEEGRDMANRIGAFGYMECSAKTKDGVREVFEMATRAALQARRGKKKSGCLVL

These are yes or no findings as the source states them, for the method shown. For part of these data: Binding seen in cells or lysates may run through a third protein. Some entries that bind do so weakly or less than the wild type.

Take DIAPH1 (from UniProt O60610 1-1272): in assay [1], the binding result is “binds”.

Turning to GST-IQGAP1 (from UniProt P46940 1-1657), the binding result in assay [2] is “binds”.

In the case of GST-RhoA (from UniProt P61586 1-193), in assay [2], the binding result is “binds”.

Values taken from article PMC8065111 (Nature Communications, 2021).
